# Measurements: US4801612A, “Method of inhibiting inflammatory response” (Regents of the University of California, priority 1986, dated 1989)
# Key:
# rat hind paw = assay: Heat-induced paw edema and protein extravasation (Evans blue), hind paw in 58° C. water for 5 min.; format: in vivo; conditions: doses of Table I
# Protocol: Male albino rats weighing 200 to 280 g were anesthetized with sodium pentobarbital, 60 mg/kg i.p., and a right jugular vein cannulated for drug injections. Human/rat CRF (at various dosages described below) or saline, and Evans blue dye, 50 mg/kg, were injected intravenously 10 and 3 min., respectively, before immersion of the hind paw in 48° C. or 58° C. water for 5 min. The frequency of paw withdrawal from the water was then counted.
# At the end of the exposure period, the animals were sacrificed and the dorsal skin, between the calcaneal process and phalanges, was removed from both paws, weighed, and each placed in 4 ml of formamide for 3 days at room temperature. The extracted Evans blue was quantified colorimetrically at 600 nm with readings from the untreated paw skin used as the blank values.
# Protein extravasation was measured by injecting a dye into a blood compartment of the animal. The dye binds to blood proteins and when the permeability of the tissue is increased by the heat, the dye leaks into the skin of the paw. The skin of the paw was excised, the dye extracted, and the amount of dye in the skin was measured to provide an index of the skin permeability changes that accompany the heat damage. […] In a manner analogous to that described above for administration of CRF, sauvagine was administered and paws of the anesthetized recipients exposed to water at 58° C. […]
# rat saphenous nerve = assay: Neurogenic plasma extravasation (NPE) by antidromic stimulation of the rat saphenous nerve; format: in vivo; conditions: injected shortly before electrical
# Description: Kiang and Wei, Eur. J. Pharmacol. 114, 111 (1985).
# To determine if the CRF effect was secondary to release of pituitary or adrenal hormones (which involves ACTH in the pathway), the activity of CRF was examined in hypophysectomized and adrenalectomized rats. […] The surgical procedures associated with sham-operations and adrenalectomy made animals more sensitive to electrically stimulated NPE. […] Thus, the inhibitory activity of CRF appears to be independent of its stimulatory effects on pituitary and adrenal function and consequently appears to be independent of its previously known property of elevating ACTH levels. Nor does the inflammation inhibition of CRF appear to be associated with its previously known ability to stimulate β-endorphinactivities.
# As has been known, CRF and related peptides produce hypotension in anesthetized and unanesthetized animals. […] Neither does the inflammation inhibition of the present invention appear to have any associaton with the hypotensive properties of CRF and its analogs.
smiles,measurement,setting,value
"CN1CC[C@]23c4c5ccc(O)c4O[C@H]2[C@@H](O)C=C[C@H]3[C@H]1C5.O=S(=O)(O)O [morphine SO4, morphine sulfate, reference compound]",inhibition of edema (in words),rat hind paw,neither morphine nor dexamethasone inhibits either edema
same,inhibition of protein extravasation / dye leakage (in words),rat hind paw,neither morphine nor dexamethasone inhibits
same,inhibition of NPE,rat saphenous nerve,inhibits NPE
